# US20160201132A1, “GENE EXPRESSION BIOMARKERS OF LAQUINIMOD RESPONSIVENESS” (Teva Pharmaceutical Industries Ltd., priority 2013, published 2016)
# Further values from the same series stand in other lists.
# Tested on: PBMC of RRMS patients
# Assay: Gene expression microarray analysis (HG-U133A-2) of PBMC from RRMS patients treated with LAQ, ancillary study to ALLEGRO
# Type: in vivo, human
# From the text: The goal of this ancillary study was to characterize gene expression changes and corresponding biological mechanisms induced in PBMC of RRMS patients by LAQ treatment. According to ALLEGRO clinical trial inclusion criteria, 25 patients were randomly assigned to receive LAQ (n=13, age 38.8±2.3 years, female/male ratio: 8/5) or placebo (n=12, age 37.2±3.4 years, female/male ratio: 8/4).
# Peripheral blood samples were obtained from RRMS patients at baseline before start of LAQ treatment or placebo, after 0, 1, 6 and 24 month of treatment (visit 0, 1, 6 and 7 according to ALLEGRO clinical trial protocol correspondently) for gene microarray analysis.
# Briefly, 1) Peripheral blood mononuclear cells (PBMC) were obtained from RRMS patients that participated in ALLEGRO and were treated daily with 0.6 mg LAQ or placebo. PBMC were subjected for gene expression analysis (HU-133A-2-Affymatrix arrays) at baseline and at 1 and 6 months of LAQ treatment; 2) Data was analyzed by Partek Genomics Solution software. Most informative genes (MIGs) were defined as those that differentiated between groups with p<0.01. Gene functional annotation, enrichment and pathway analysis were performed by Ingenuity software. For each time point, genes that changed in placebo group were excluded from further analysis; and 3) Verification of LAQ related mechanism was performed by Western blot.
# PBMC were extracted from 15 ml peripheral blood, separated by Ficoll-Hypaque gradient. Total RNA was extracted using both Trizol (Invitrogen, USA) and Phase-Lock-Gel columns (Eppendorf, Germany) including a DNase digestion step. RNA integrity was assessed by RNA Experion automated electrophoresis system (Bio-Rad Laboratories, Hercules, Calif.).
# Probe synthesis using 3 μg total RNA, hybridization, detection, and scanning was performed according to the standard Affymetrix, Inc. USA protocols; cDNA was synthesized using the Two-Cycle cDNA Synthesis Kit (Affymetrix, Inc., USA), and in-vitro transcription performed with the GeneChip IVT Labeling Kit (Affymetrix, Inc., USA). The biotin-labeled IVT-RNA was hybridized to HG-U133A-2 arrays containing 18,400 gene transcripts, each corresponding to 14,500 well-annotated human genes, washed in a GeneChip Fluidics Station 450 (Hewlett Packard, USA, GeneArray-™ scanner G2500A) and scanned according to the manufacturer's protocol (Affymetrix, Inc., USA).
# Data analysis was performed on Partek Genomics Solution software (www.partek.com; Partek Incorporated, St. Louis, Mo.). Expression values were computed from raw CEL files by applying the Robust Multi-Chip Average (RMA) background correction algorithm. RMA correction included: 1) values background correction; 2) quintile normalization; 3) log 2 transformation; and 4) median polish summarization. The ANOVA, Repeated Measures and correlation analysis implicated in Partek software ware applied to evaluate LAQ effects. Most informative genes MIGs were defined as those that differentiated between experimental groups with p<0.01. All p-values were calculated for False Discovery Rate (FDR) multiple test correction at p=0.05.
# Additionally, significance of individual genes was tested by parametric T-test and non parametric Mann-Whitney test using Bootstrapping approach based on repeated permutations of the data with 5% FDR for multiple testing.
# Gene functional annotation, enrichment, and pathway analyses to identify the leading biological pathways that operated under LAQ treatment were performed by Ingenuity Pathways Analysis software (www.ingenuity.com).
# ANOVA analysis was used to compare PBMC gene expression after 1, 6 or 24 month of LAQ treatment with baseline gene expression.
# For each time point inventors performed analysis source of variation in dataset. (FIG. 1). Age, gender and batch effects were considered as confounders regarding LAQ or Placebo related changes. For each time point genes associated with Placebo effect were evaluated and excluded from further analysis. […]
smiles,measurement,setting,value
"CCN(C(=O)c1c(O)c2c(Cl)cccc2n(C)c1=O)c1ccccc1 [LAQ, 5-chloro-N-ethyl-4-hydroxy-1-methyl-2-oxo-N-phenyl-1,2-dihydroquinoline-3-carboxamide]",Fold-Change (4.0 vs. 0.0),"gene CTSL2, after six months of LAQ",−1.2276
same,Fold-Change (4.0 vs. 0.0),"gene CYLC2, after six months of LAQ",−1.138
same,Fold-Change (4.0 vs. 0.0),"gene CYP2A13, after six months of LAQ",−1.227
same,Fold-Change (4.0 vs. 0.0),"gene CYP2E1, after six months of LAQ",−1.354
same,Fold-Change (4.0 vs. 0.0),"gene CYP2W1, after six months of LAQ",−1.25
same,Fold-Change (4.0 vs. 0.0),"gene CYP3A4, six months of treatment",−1.152
same,Fold-Change (4.0 vs. 0.0),"gene CYP3A7, after six months of LAQ",−1.1409
same,Fold-Change (4.0 vs. 0.0),gene CYP3A43,−1.194
same,Fold-Change (4.0 vs. 0.0),"gene CYP3A43, after six months of LAQ",−1.14
same,Fold-Change (4.0 vs. 0.0),"gene CYP4A11, after six months of LAQ",−1.273
same,Fold-Change (4.0 vs. 0.0),"gene CYP4A22, after six months of LAQ",−1.127
same,Fold-Change (4.0 vs. 0.0),"gene CYP4F11, six months of treatment",−1.145
same,Fold-Change (4.0 vs. 0.0),gene CYP19A1,−1.1916
same,Fold-Change (4.0 vs. 0.0),"gene DACH1, after six months of LAQ",−1.261
same,Fold-Change (4.0 vs. 0.0),"gene DAZ1 /// DAZ2 /// DAZ3 /// DAZ4, six months of treatment",−1.157
same,Fold-Change (4.0 vs. 0.0),"gene DBC1, after six months of LAQ",−1.234
same,Fold-Change (4.0 vs. 0.0),"gene DCBLD2, PBMC, six months of LAQ treatment",−1.083
same,Fold-Change (4.0 vs. 0.0),"gene DCHS2, after six months of LAQ",−1.141
same,Fold-Change (4.0 vs. 0.0),gene DDR1,−1.185
same,Fold-Change (4.0 vs. 0.0),"gene DENND2A, after six months of LAQ",−1.143
same,Fold-Change (4.0 vs. 0.0),"gene DENND2A, six months of treatment",−1.159
same,Fold-Change (4.0 vs. 0.0),"gene DGKB, after six months of LAQ",−1.135
same,Fold-Change (4.0 vs. 0.0),"gene DICER1, six months of treatment",−1.145
same,Fold-Change (4.0 vs. 0.0),gene DIO2,−1.184
same,Fold-Change (4.0 vs. 0.0),"gene DIRAS3, six months of treatment",−1.147
same,Fold-Change (4.0 vs. 0.0),"gene DKFZP434B2016 /// LOC643313, after six months of LAQ",−1.126
same,Fold-Change (4.0 vs. 0.0),"gene DKX4, PBMC, six months of LAQ treatment",−1.1214
same,Fold-Change (4.0 vs. 0.0),"gene DLEU2 /// DLEU2L, after six months of LAQ",−1.326
same,Fold-Change (4.0 vs. 0.0),"gene DLGAP1, six months of treatment",−1.145
same,Fold-Change (4.0 vs. 0.0),gene DLGAP4,−1.193
same,Fold-Change (4.0 vs. 0.0),"gene DNAH9, six months of treatment",−1.16
same,Fold-Change (4.0 vs. 0.0),"gene DNAJC6, PBMC, six months of LAQ treatment",−1.107
same,Fold-Change (4.0 vs. 0.0),"gene DNAJC8, after six months of LAQ",−1.129
same,Fold-Change (4.0 vs. 0.0),"gene DNAJC22, six months of treatment",−1.145
same,Fold-Change (4.0 vs. 0.0),"gene DOCK5, six months of treatment",−1.1585
same,Fold-Change (4.0 vs. 0.0),"gene DOCK6, PBMC, six months of LAQ treatment",−1.107
same,Fold-Change (4.0 vs. 0.0),"gene DOCK6, six months of treatment",−1.159
same,Fold-Change (4.0 vs. 0.0),"gene DRD2, PBMC, six months of LAQ treatment",−1.121
same,Fold-Change (4.0 vs. 0.0),"gene DRD5, after six months of LAQ",−1.136
same,Fold-Change (4.0 vs. 0.0),gene DSG2,−1.188
same,Fold-Change (4.0 vs. 0.0),"gene DUX3 /// DUX4 /// FRG2C /// HPX-2 /// LOC100134409 /// LOC652119 /// LOC653543 /// LOC653544 /// LOC653545 /// LOC728410, after six months of LAQ",−1.237
same,Fold-Change (4.0 vs. 0.0),"gene DYNC1I1, after six months of LAQ",−1.229
same,Fold-Change (4.0 vs. 0.0),"gene DZIP1, after six months of LAQ",−1.125
same,Fold-Change (4.0 vs. 0.0),"gene E2F5, after six months of LAQ",−1.13
same,Fold-Change (4.0 vs. 0.0),"gene EDA2R, after six months of LAQ",−1.2385
same,Fold-Change (4.0 vs. 0.0),"gene EDNRA, PBMC, six months of LAQ treatment",−1.11
same,Fold-Change (4.0 vs. 0.0),"gene EDNRA, six months of treatment",−1.154
same,Fold-Change (4.0 vs. 0.0),"gene EFCAB6, after six months of LAQ",−1.231
same,Fold-Change (4.0 vs. 0.0),"gene EFNB1, after six months of LAQ",−1.279
same,Fold-Change (4.0 vs. 0.0),gene EFNB3,−1.188
same,Fold-Change (4.0 vs. 0.0),gene EFS,−1.191
same,Fold-Change (4.0 vs. 0.0),"gene EFS, after six months of LAQ",−1.247
same,Fold-Change (4.0 vs. 0.0),"gene EGFL6, after six months of LAQ",−1.235
same,Fold-Change (4.0 vs. 0.0),"gene EGFR, six months of treatment",−1.154
same,Fold-Change (4.0 vs. 0.0),"gene ELAVL2, after six months of LAQ",−1.135
same,Fold-Change (4.0 vs. 0.0),"gene ELAVL4, after six months of LAQ",−1.248
same,Fold-Change (4.0 vs. 0.0),"gene ELF5, after six months of LAQ",−1.142
same,Fold-Change (4.0 vs. 0.0),"gene ELL2, after six months of LAQ",−1.292
same,Fold-Change (4.0 vs. 0.0),"gene EMX1, after six months of LAQ",−1.134
same,Fold-Change (4.0 vs. 0.0),"gene ENTPD7, after six months of LAQ",−1.259
same,Fold-Change (4.0 vs. 0.0),"gene EPAS1, six months of treatment",−1.146
same,Fold-Change (4.0 vs. 0.0),"gene EPB41, after six months of LAQ",−1.138
same,Fold-Change (4.0 vs. 0.0),gene EPB41L1,−1.192
same,Fold-Change (4.0 vs. 0.0),"gene EPB41L4B, after six months of LAQ",−1.142
same,Fold-Change (4.0 vs. 0.0),"gene EPHB3, after six months of LAQ",−1.129
same,Fold-Change (4.0 vs. 0.0),"gene ERC1, six months of treatment",−1.145
same,Fold-Change (4.0 vs. 0.0),"gene ERG, six months of treatment",−1.144
same,Fold-Change (4.0 vs. 0.0),"gene ERN1, after six months of LAQ",−1.277
same,Fold-Change (4.0 vs. 0.0),"gene ESR2, after six months of LAQ",−1.248
same,Fold-Change (4.0 vs. 0.0),"gene ETV1, after six months of LAQ",−1.14
same,Fold-Change (4.0 vs. 0.0),gene ETV5,−1.19
same,Fold-Change (4.0 vs. 0.0),"gene EXOSC6, after six months of LAQ",−1.266
same,Fold-Change (4.0 vs. 0.0),gene F11,−1.187
same,Fold-Change (4.0 vs. 0.0),gene FABP3,−1.191
same,Fold-Change (4.0 vs. 0.0),"gene FAM12A, after six months of LAQ",−1.14
same,Fold-Change (4.0 vs. 0.0),"gene FAM13C, after six months of LAQ",−1.134
same,Fold-Change (4.0 vs. 0.0),"gene FAM66D, PBMC, six months of LAQ treatment",−1.116
same,Fold-Change (4.0 vs. 0.0),"gene FAM107A, six months of treatment",−1.152
same,Fold-Change (4.0 vs. 0.0),"gene FAM155A, after six months of LAQ",−1.129
same,Fold-Change (4.0 vs. 0.0),"gene FAM174B, after six months of LAQ",−1.138
same,Fold-Change (4.0 vs. 0.0),"gene FAM182B, PBMC, six months of LAQ treatment",−1.118
same,Fold-Change (4.0 vs. 0.0),"gene FAM186A, after six months of LAQ",−1.1268
